Reference: article PMC10158027
Results are given in words; binding and its absence hold for the method and conditions named. Binding seen in cells or lysates may run through a third protein. A yes stands for co-enrichment or nearness to the bait. Other partners may have been found.

Amino acid sequences for entries named in this document (tags omitted).
UniProt Q86U44: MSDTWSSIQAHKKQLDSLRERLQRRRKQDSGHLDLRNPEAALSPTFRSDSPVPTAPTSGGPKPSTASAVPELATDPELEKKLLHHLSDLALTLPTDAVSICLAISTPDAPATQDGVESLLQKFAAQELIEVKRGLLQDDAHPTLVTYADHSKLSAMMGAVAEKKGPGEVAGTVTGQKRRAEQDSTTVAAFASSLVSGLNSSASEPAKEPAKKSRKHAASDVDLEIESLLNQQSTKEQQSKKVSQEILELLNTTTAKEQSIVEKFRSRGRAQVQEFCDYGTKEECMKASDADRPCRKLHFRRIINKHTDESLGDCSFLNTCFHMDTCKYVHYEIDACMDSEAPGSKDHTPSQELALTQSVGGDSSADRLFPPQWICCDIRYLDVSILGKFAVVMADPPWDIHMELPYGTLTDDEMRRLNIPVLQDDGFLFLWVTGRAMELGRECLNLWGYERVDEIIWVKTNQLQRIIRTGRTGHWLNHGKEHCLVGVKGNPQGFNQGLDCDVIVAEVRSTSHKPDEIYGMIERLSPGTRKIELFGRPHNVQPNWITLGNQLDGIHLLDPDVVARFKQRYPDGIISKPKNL

Molecular target: T1, USP13 (human (endogenous in OS cells)) (UniProt Q92995)
T1 sequence: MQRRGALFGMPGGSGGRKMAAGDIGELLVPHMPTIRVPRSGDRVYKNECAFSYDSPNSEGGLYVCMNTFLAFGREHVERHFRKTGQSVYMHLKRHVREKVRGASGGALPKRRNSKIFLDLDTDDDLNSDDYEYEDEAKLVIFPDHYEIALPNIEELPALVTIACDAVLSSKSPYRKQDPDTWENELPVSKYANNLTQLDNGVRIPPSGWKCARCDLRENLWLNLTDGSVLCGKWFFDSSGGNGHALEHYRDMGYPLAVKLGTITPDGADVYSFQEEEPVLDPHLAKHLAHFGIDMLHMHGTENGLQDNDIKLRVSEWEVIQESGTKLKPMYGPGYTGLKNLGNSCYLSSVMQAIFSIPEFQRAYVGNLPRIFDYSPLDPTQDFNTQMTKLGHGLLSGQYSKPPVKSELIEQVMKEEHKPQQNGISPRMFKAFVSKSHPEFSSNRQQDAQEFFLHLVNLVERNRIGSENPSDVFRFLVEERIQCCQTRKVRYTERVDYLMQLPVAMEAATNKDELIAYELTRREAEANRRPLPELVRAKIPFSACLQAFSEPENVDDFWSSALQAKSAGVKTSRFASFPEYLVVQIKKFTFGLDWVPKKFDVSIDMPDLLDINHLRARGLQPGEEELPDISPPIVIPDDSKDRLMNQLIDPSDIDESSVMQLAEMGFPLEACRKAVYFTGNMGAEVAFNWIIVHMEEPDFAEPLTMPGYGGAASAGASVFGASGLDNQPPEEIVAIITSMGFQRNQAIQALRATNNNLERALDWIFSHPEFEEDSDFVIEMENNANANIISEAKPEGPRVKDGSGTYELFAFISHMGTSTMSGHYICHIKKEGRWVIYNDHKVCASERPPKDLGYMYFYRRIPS
Assay: affinity purification with mass spectrometry; IP coupled with MS (IP/MS) to find proteins that bind USP13; cells and bait form not told in the main text

binding: binds
Substance: METTL3 (from UniProt Q86U44 1-580) (enzyme)
